PubChem BioAssay AID1259405 | NCATS, 2018
Shown is an unselected part of about 50,000 reagents tested. About 4,000 of them (8%) count as active. 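Mouse siRNA library applied to hamster cells; one well for each siRNA.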 Entries without a mark were called inactive. The numbers tell different reagents against one gene apart.

- Screen: 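Silenced genes that increase secreted GFP made by CHO cells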 (primary screen)
- Cells: Chinese hamster CHO-K1 ovary cells with stable secreted eGFP expression
- Reagents: single siRNA against mouse genes, 0.8 pmol siRNA per well (2 µl of 400 nM stock)
- Duration: 3 days
- Read-out: 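Per-well intracellular GFP measured by laser scanning cytometry, plus viability from ATP luminescence, each relative to plate median of non-targeting control wells, in %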
- Scale: GFP, % of control: higher = more GFP per well, higher productivity; viability (ATP), % of control: higher = more viable cells (more ATP)
- Hit rule: 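Called active when intracellular GFP, relative to negative control, is at or above 120%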

gene knocked down	reagent	GFP, % of control	viability (ATP), % of control
Lrrc26	1	79.3	58.1
Lrrc26	2	69.6	54.9
Lrrc26	3	62.3	71.9
Mib2	1	61.7	55.7
Mib2	2	86.8	79.5
Mib2	3	108	104
Oprd1	1	76.7	64.5
Oprd1	2	76.3	82.6
Oprd1	3	71.8	66.1
Il5ra	1	127 (active)	90.7
Il5ra	2	74.1	58
Il5ra	3	70.7	63.9
Kbtbd2	1	58.2	68.8
Kbtbd2	2	60.4	79.4
Kbtbd2	3	99.4	80
Coa8	1	60.5	62
Coa8	2	67	92.7
Coa8	3	92.1	72.8
Esrrb	1	91.6	64.8
Esrrb	2	154 (active)	90.4
Ppp1r10	1	69.6	99.1
Ppp1r10	2	69.4	53.1
Septin9	1	48.6	49.9
Septin9	2	58.1	49.5
Septin9	3	123 (active)	59.2
Oscar	1	14.9	7.57
Oscar	2	69.2	61.6
Oscar	3	61.8	65.2

The list goes on; the last 4 above are carried over.
gene knocked down	reagent	GFP, % of control	viability (ATP), % of control
Septin9	3	123 (active)	59.2
Oscar	1	14.9	7.57
Oscar	2	69.2	61.6
Oscar	3	61.8	65.2
Stam	1	70.9	72.5
Stam	2	80.3	84.2
Stam	3	94.5	107
Pigu	1	37.5	52.2
Pigu	2	45.3	65.8
Pigu	3	115	145
Jazf1	1	57.9	52.8
Jazf1	2	61.6	54.9
Jazf1	3	34.7	34.9
Scrn1	1	62.9	73.1
Scrn1	2	56.8	49.8
Scrn1	3	81.1	93.4
Polr3k	1	88.3	60.2
Polr3k	2	76.3	84.9
Gnl1	1	90.3	83.4
Gnl1	2	64.1	87.8
Gnl1	3	88.2	97.1
Htra1	1	63.2	64.1
Htra1	2	115	64.5
Htra1	3	67.6	67.4
Manf	1	90.6	53.9
Manf	2	83.9	66.5
Manf	3	46.5	33.9
Trrap	1	166 (active)	116
Map7d3	1	37.2	50
Map7d3	2	59.6	85.8
Map7d3	3	43.9	63.5
Commd7	1	85.7	89.7
Commd7	2	85.7	77.2
Commd7	3	72.4	105
